Laboratory results published in PubChem BioAssay AID1347075 (National Center for Advancing Translational Sciences (NCATS), 2019).
Several values for one entry are separate records, joined by “and”; a condition that tells them apart may be missing. Equal values may be shown once. Hit rate of the full screen: of about 400,000 compounds, about 5,500 (1.4%) were called active. The inconclusive results got no clear call from the source; some entries with a clear call stand among them for comparison. Calls come from the whole dose curve; as a rule, active = well fitted cell-killing curve with a large enough effect; inconclusive = small, poorly fitted or top-dose-only effect, or effect the other way; inactive = flat fitted curve, though single readings scatter. Potencies beside an inconclusive call are fits to weak or partial responses and may not hold up.

Experiment: qHTS assay for MDR1-selective chemotherapeutics: Primary screen using the parental adenocarcinoma cell KB-3-1; note: nearly all actives have a fitted effect of over 60% in size
Conditions: KB-3-1 viability, CellTiter-Glo ATP luminescence, 72 h; activity change, negative = cytotoxic: at 46.1 µM (top of the series)
Method in brief: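 KB-3-1 cells, DMEM (no phenol red) + 10% FBS; compound by pin transfer, 72 h, 37 °C. Readout: CellTiter-Glo luminescence after 10 min. Data normalized, curve-fitted.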
% is set by controls: 0 for no effect and ±100 for the full control effect; potency is the fitted concentration of half-maximal effect.

Q: Which activity change, negative = cytotoxic does the source give for `O=C(Cc1cccs1)N1CCN(S(=O)(=O)c2cccc([N+](=O)[O-])c2)CC1` here?
A: Its activity change, negative = cytotoxic is inconclusive: 3.58%.

Q: With `CC(C)OC(=O)C1=C(N)N2C(=O)CSC2=C(C(=O)OC(C)C)C1` as the molecule, how does the “activity change, negative = cytotoxic” value read?
A: Its value is inactive: 2.23%.

Q: With `Cc1ccccc1OCC(=O)NCC(=O)OCC(=O)c1ccc2c(c1)CCCC2` as the molecule, how does the Potency read?
A: The Potency was inconclusive: 14.6 µM [rising, partial curve, poor fit].

Q: With `N/C(=N\OC(=O)c1ccc2ccccc2c1)c1ccncc1` as the molecule, how does the Potency read?
A: Its Potency is inconclusive: 29.1 µM [cytotoxic, single point].

Q: With `O=C(NCCOc1ccccc1)c1cc([N+](=O)[O-])ccc1N1CCOCC1` as the molecule, how does the Potency read?
A: Its Potency is inconclusive: 29.1 µM [cytotoxic, single point].

Q: With `COc1cc(CNc2cccc3[nH]c(C(F)(F)F)nc23)cc(OC)c1` as the molecule, how does the Potency read?
A: Its Potency is inconclusive: 20.6 µM [cytotoxic, partial curve].

Q: Which “activity change, negative = cytotoxic” value does the source give for `CN(C)C(CNS(=O)(=O)c1ccc(Cl)cc1F)c1ccco1` (configuration not stated) here?
A: The value was inactive: -12.5%.

Q: Which Potency does the source give for `COc1ccc(C(CNC(=O)c2oc3cc(Br)ccc3c2C)N2CCCCC2)cc1` (configuration not stated) here?
A: Its Potency is “inactive”.

Q: For `COc1ccc(-c2csc3ncnc(NCCN4CCOCC4)c23)cc1`, which Potency is on record?
A: The Potency was inconclusive: 18.4 µM [cytotoxic, single point].

Q: For `COC(=O)c1ccc(Oc2nc(Nc3ccccc3)nc(N(C)C)n2)cc1`, which “activity change, negative = cytotoxic” value is on record?
A: The value was inactive: -10.8%.

Q: Which Potency does the source give for `CCOC(=O)[C@]12Cc3c(cc(OC)c(OC)c3OC)[C@H]1N(Cc1ccccc1)C(=O)c1cc(F)c(F)cc12` here?
A: The Potency was inconclusive: 29.1 µM [cytotoxic, single point].

Q: Which “activity change, negative = cytotoxic” value does the source give for `CC(C)(C)OC(=O)N1CCCC(C(=O)Nc2ccc(C(=O)NCc3ccccc3)cc2)C1` (configuration not stated) here?
A: The value was inactive: 0%.

Q: Which Potency does the source give for `COc1ccc(NC(=O)c2oc3ccccc3c2C)c(OC)c1` here?
A: Its Potency is inconclusive: 18.4 µM [cytotoxic, single point].

Q: For `Cc1ccc(-n2nc(C(=O)N(C)c3ccc(C)c(C)c3)c3c4ccccc4n(C)c3c2=O)cc1`, which “activity change, negative = cytotoxic” value is on record?
A: The value was inactive: -0.54%.

Q: With `Cc1nc(N2CCN(S(=O)(=O)c3ccc(F)cc3)CC2)c2c(-c3cccs3)csc2n1` as the molecule, how does the Potency read?
A: The Potency was inconclusive: 29.1 µM [cytotoxic, single point].

Q: For `Cc1ccc(CN2CCC(CNC(=O)c3cnn(-c4ccc(C)cc4)c3C3CCN(C(=O)OC(C)(C)C)CC3)CC2)cc1`, which Potency is on record?
A: The Potency was active: 16.4 µM.

Q: For `COc1ccc(-c2ccc3[nH]c4c(c3c2)CCN2C(=O)[C@@H]([C@H](C)O)[C@@H](N(C)C(=O)Nc3cc(Cl)cc(Cl)c3)C[C@@H]42)cc1`, which Potency is on record?
A: Its Potency is inconclusive: 29.1 µM [cytotoxic, single point].

Q: Which “activity change, negative = cytotoxic” value does the source give for `COc1ccc(Cl)cc1NC(=O)COC(=O)/C=C/c1c(C)nn(C2CCS(=O)(=O)C2)c1Cl` (configuration not stated) here?
A: The value was inactive: -2.46%.

Q: Which Potency does the source give for `Brc1ccc(-c2nn3c(-c4ccccn4)nnc3s2)o1` here?
A: The Potency was inconclusive: 10.3 µM [rising, partial curve].

Q: Which “activity change, negative = cytotoxic” value does the source give for `O=S(=O)(Nc1ccc(C(F)(F)F)cc1)c1cnc[nH]1` here?
A: Its value is inactive: -17.2%.

Q: Which Potency does the source give for `C=C1[C@@H](OC(C)=O)CC[C@]2(C)[C@@H]1C[C@@H]1C[C@H](OC(C)=O)C(C)=C([C@@H](OC(C)=O)[C@@H]2OC(C)=O)C1(C)C` here?
A: The Potency was inconclusive: 32.6 µM [cytotoxic, single point].

Q: Which Potency does the source give for `ClCc1nc2ccccc2c2ccccc12` here?
A: Its Potency is inconclusive: 20.6 µM [cytotoxic, single point].

Q: For `COC(=O)[C@]12CCCCC=C1N(Cc1ccc(Cl)cc1Cl)C(=O)[C@H](CC(=O)NCc1cccs1)C2`, which Potency is on record?
A: Its Potency is inconclusive: 29.1 µM [cytotoxic, single point].

Q: For `Cc1cc(=O)n(CC(=O)Nc2ccc(Cl)c(Cl)c2)c(-n2nc(C)cc2C)n1`, which Potency is on record?
A: Its Potency is inconclusive: 29.1 µM [cytotoxic, single point].

Q: Which Potency does the source give for `CC(C)(C)c1ccccc1NC(=O)c1cc(-c2ccncc2)nc2ccccc12` here?
A: Its Potency is inconclusive: 32.6 µM [cytotoxic, single point].

Q: With `CN1C(=O)c2ccccc2Sc2ccc(NC(=O)Cc3ccc(Cl)cc3)cc21` as the molecule, how does the “activity change, negative = cytotoxic” value read?
A: The value was inactive: 3.86%.

Q: For `Cc1c(C(=O)OCc2ccccc2)[nH]c2c1C(=O)CC(c1ccco1)C2` (configuration not stated), which Potency is on record?
A: Its Potency is active: 0.58 µM.

Q: For `Cc1nn(-c2ccccc2)c(C)c1C(=O)OCC(=O)NC12CC3CC(CC(C3)C1)C2`, which Potency is on record?
A: Its Potency is inconclusive: 29.1 µM [cytotoxic, single point].

Q: With `COc1cc(C(C)=O)ccc1OCC(=O)Nc1ccccc1N1CCCCC1` as the molecule, how does the Potency read?
A: Its Potency is inconclusive: 18.4 µM [cytotoxic, single point].

Q: With `COc1ccc(OC)c(CCNC(=O)c2ccc3c(c2)N(Cc2ccccc2)CCS3)c1` as the molecule, how does the Potency read?
A: Its Potency is inconclusive: 25.9 µM [cytotoxic, single point] and inconclusive: 18.4 µM [cytotoxic, partial curve, poor fit].

Q: For `O=C(NCC1CCCO1)c1cc2n(n1)C(C(F)(F)F)CC(c1ccc(F)cc1)N2` (configuration not stated), which “activity change, negative = cytotoxic” value is on record?
A: The value was inactive: 2.58%.

Q: For `O=C(NCc1nc2ccccc2[nH]1)c1cccs1`, which “activity change, negative = cytotoxic” value is on record?
A: Its value is inactive: 6.53%.

Q: Which Potency does the source give for `O=C(NCC(=O)N1CCCCCCC1)c1ccccc1Br` here?
A: The Potency was inconclusive: 29.1 µM [rising, single point].

Q: Which Potency does the source give for `COc1ccc(NC(=O)C2Cc3c(-c4cccc(C(C)=O)c4)ccnc3O2)cn1` (configuration not stated) here?
A: The Potency was active: 2.06 µM.

Q: With `COc1ccc(C(CNC(=O)c2oc3ccc(F)cc3c2C)N2CCCCC2)cc1` (configuration not stated) as the molecule, how does the Potency read?
A: Its Potency is inconclusive: 29.1 µM [cytotoxic, single point].

Q: For `COc1ccc(N2CCC(CNC(=O)Nc3ccccc3)C2)cc1` (configuration not stated), which “activity change, negative = cytotoxic” value is on record?
A: The value was inactive: -0.988%.

Q: Which Potency does the source give for `CC1=CC(C)(C)Nc2ccc(OC(=O)C(C)N3C(=O)c4ccccc4C3=O)cc21` (configuration not stated) here?
A: The Potency was inconclusive: 29.1 µM [cytotoxic, single point].

Q: For `COc1ccc(C)cc1NC(=O)CSc1nc(=O)n(Cc2ccco2)c2c1CCC2`, which “activity change, negative = cytotoxic” value is on record?
A: Its value is inactive: -15%.

Q: With `Cc1cc(/C=c2\sc3nc4ccccc4n3c2=O)c(C)n1-c1ccc(C(=O)O)cc1` as the molecule, how does the Potency read?
A: Its Potency is inconclusive: 0.731 µM [rising, full curve, poor fit].

Q: For `c1cc2ccc3ccc(-n4cnnn4)c4ccc(c1)c2c34`, which Potency is on record?
A: Its Potency is inconclusive: 29.1 µM [cytotoxic, single point].

Q: Which Potency does the source give for `N#Cc1c(NCCN)nc(-c2ccccc2)c2c1CCCC2` here?
A: The Potency was inconclusive: 29.1 µM [cytotoxic, single point].

Q: For `CNc1nc(Cl)nc2c1ncn2-c1ccccc1`, which Potency is on record?
A: The Potency was active: 14.6 µM.

Q: For `CC(C)C[C@@H](COc1ccccc1)N1CCN(CCc2ccccc2)CCC1=O`, which Potency is on record?
A: The Potency was inconclusive: 29.1 µM [cytotoxic, single point].

Q: Which Potency does the source give for `Cc1ccccc1CN1CCC(Oc2ccc(C(=O)NCc3ccccn3)cc2)CC1` here?
A: Its Potency is inconclusive: 9.2 µM [cytotoxic, partial curve, poor fit].

Q: With `CCCCn1c(N)c(N(CC(C)C)C(=O)CN2C(=O)NC3(CC(C)CC(C)(C)C3)C2=O)c(=O)[nH]c1=O` (configuration not stated) as the molecule, how does the Potency read?
A: The Potency was inconclusive: 32.6 µM [rising, single point].

Q: Which “activity change, negative = cytotoxic” value does the source give for `CCOC(=O)c1cnc2c(C)cc(C)cc2c1NCCN1CCOCC1` here?
A: Its value is inactive: 6.29%.

Q: For `CCCSC1=NC2(CCN(C(=O)NC3CCCCC3)CC2)N=C1c1ccc(C)cc1`, which Potency is on record?
A: The Potency was inconclusive: 29.1 µM [rising, single point].

Q: With `O=C(O)c1ccc2c3c(cccc13)C(=O)N(c1ccccc1)C2=O` as the molecule, how does the activity change, negative = cytotoxic read?
A: The activity change, negative = cytotoxic was inconclusive: 17.1%.

Q: For `C=CCNC1=C(Cl)C(=O)c2ccccc2C1=O`, which Potency is on record?
A: The Potency was inconclusive: 29.1 µM [cytotoxic, single point].

Q: For `CC[C@@H](C)[C@@H](C(=O)N1CCN(C(=O)OC(C)(C)C)CC1)n1cc(CCCCNC(=O)OC(C)(C)C)nn1`, which Potency is on record?
A: Its Potency is inconclusive: 20.6 µM [cytotoxic, single point].

Q: Which Potency does the source give for `N#C/C(=N\Nc1c(Cl)cccc1Cl)C(=O)NN` here?
A: Its Potency is active: 14.6 µM.

Q: Which Potency does the source give for `COc1ccc([C@H]2CC(=O)C=C(c3ccccc3-c3ccccc3)C2)cc1` here?
A: Its Potency is inconclusive: 18.4 µM [cytotoxic, partial curve, poor fit].

Q: For `CC1(C)C(C=C(Cl)Cl)C1C(=O)Nc1ccc([N+](=O)[O-])cc1` (configuration not stated), which Potency is on record?
A: Its Potency is inconclusive: 23.1 µM [cytotoxic, single point].

Q: For `N#Cc1c(-c2ccccc2)c(-c2ccccc2)n(Cc2ccco2)c1NC(=O)c1cccs1`, which “activity change, negative = cytotoxic” value is on record?
A: The value was inactive: -23.3%.

Q: Which Potency does the source give for `CC(C)CC(=O)N1CC=CC[C@@H](c2ccc(Cl)cc2)N(Cc2ccc(Cl)cc2)C(=O)[C@@H]1Cc1ccccc1` here?
A: Its Potency is inconclusive: 29.1 µM [cytotoxic, single point].

Q: For `O=C(Nc1ccccc1)OC1CCC2CC1CCC2OC(=O)Nc1ccccc1` (configuration not stated), which Potency is on record?
A: The Potency was inconclusive: 29.1 µM [cytotoxic, single point].

Q: For `CO/N=C/C(C#N)=C/c1ccc(OC)c(OC)c1`, which Potency is on record?
A: Its Potency is inconclusive: 9.2 µM [rising, partial curve, poor fit].

Q: Which Potency does the source give for `CC(=O)Nc1ccc(-c2csc(Nc3cc(C)ccn3)n2)cc1` here?
A: Its Potency is inconclusive: 29.1 µM [cytotoxic, partial curve, poor fit].

Q: With `Cc1cccc(C)c1NC(=O)c1nc(S(=O)(=O)Cc2ccccc2F)ncc1Cl` as the molecule, how does the Potency read?
A: The Potency was inconclusive: 29.1 µM [cytotoxic, single point].

Q: With `Clc1ccc(C2Nc3cccc4cccc(c34)N2)cc1Cl` as the molecule, how does the “activity change, negative = cytotoxic” value read?
A: The value was inactive: -4.44%.

Q: For `CSc1ccc(C2c3c(-c4ccccc4O)n[nH]c3C(=O)N2Cc2ccncc2)cc1` (configuration not stated), which Potency is on record?
A: Its Potency is active: 13 µM.

Q: Which Potency does the source give for `CCCCNC(=O)CNC(=O)c1cccs1` here?
A: The Potency was inconclusive: 4.61 µM [rising, full curve, poor fit].

Q: With `CCC(=NCCc1c(C)[nH]c2ccc(OC(F)(F)F)cc12)C1=C(O)CC(c2ccccc2)CC1=O` (configuration not stated) as the molecule, how does the Potency read?
A: The Potency was active: 4.11 µM.

Q: Which Potency does the source give for `C=CCn1c(O)c(C2=c3ccccc3=NC2=O)sc1=Nc1ccc(O)cc1` here?
A: The Potency was inconclusive: 23.1 µM [cytotoxic, single point].

Q: With `Oc1c(Br)cc(Br)cc1C=NCc1ccc(F)cc1` as the molecule, how does the “activity change, negative = cytotoxic” value read?
A: Its value is inactive: -4.89%.

Q: With `CN=C1c2c(-c3ccccc3)c3cc(OC)ccc3n2CCN1C` as the molecule, how does the Potency read?
A: The Potency was inconclusive: 29.1 µM [cytotoxic, single point].

Q: Which Potency does the source give for `COCCN(C(=O)c1cccc(N2C(=O)CCC2=O)c1)c1nc(-c2ccc([N+](=O)[O-])cc2)cs1` here?
A: Its Potency is inconclusive: 2.91 µM [rising, full curve, poor fit].
